Values from PubChem BioAssay AID652243 (Drosophila RNAi Screening Center, 2013).
In all, the deposit lists about 24,000 reagents; shown is an unselected part of those with a known target gene and a result. Over the whole deposit, 246 (1%) are marked active. 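Plates not normalised; calls are printed but the firefly/Renilla ratio behind them is not deposited; fold cut for lowering reported inconsistently.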 Raw values vary from plate to plate and are shown uncorrected. A plus sign joins genes that one reagent is predicted to hit. The record does not give: the amount of reagent.

Aim: 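Knock-downs that decrease or increase androgen receptor reporter signal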 (primary screen)
System: Drosophila S2R+ cells
Reagent: long dsRNA against Drosophila genes
Time to read-out: 72 h (48 h, then 24 h hormone)
Challenge: synthetic androgen R1881 at 10 nM for 24 h
Measured: 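Per-well raw luminescence of the androgen-driven firefly reporter and of the Renilla control, two replicates each, without normalisation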
Scale: firefly reporter light: higher = more light from androgen-responsive reporter; Renilla control light: higher = more constitutive control signal (cell number, transfection)
Call rule: 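Across duplicate plates, a knock-down whose log firefly/Renilla ratio shifted a set fold down or up from the GFP/LacZ control mean was a hit; the downward cut appears as both 1.5 and 3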
Calls: active = hit: reporter lowered or raised; inactive = no hit

Against CG32640 + CG32641 [DRSC22885], the values are firefly reporter light, replicate 1 = 5.37e5; firefly reporter light, replicate 2 = 8.34e5; Renilla control light, replicate 1 = 26348; Renilla control light, replicate 2 = 27458; inactive.
Knock-down of arx [DRSC10386] resulted in: firefly reporter light, replicate 1 = 28221; firefly reporter light, replicate 2 = 23575; Renilla control light, replicate 1 = 4.77e5; Renilla control light, replicate 2 = 3.22e5; inactive.
Against loaf [DRSC09130], the entry reads firefly reporter light, replicate 1 = 67469; firefly reporter light, replicate 2 = 70549; Renilla control light, replicate 1 = 1.86e5; Renilla control light, replicate 2 = 2.40e5; inactive.
For E(bx) [DRSC08172] the deposit lists firefly reporter light, replicate 1 = 1.31e5; firefly reporter light, replicate 2 = 1.86e5; Renilla control light, replicate 1 = 9.17e5; Renilla control light, replicate 2 = 1.05e6; inactive.
E(bx) [DRSC08509] showed firefly reporter light, replicate 1 = 99301; firefly reporter light, replicate 2 = 97914; Renilla control light, replicate 1 = 4.77e5; Renilla control light, replicate 2 = 6.51e5; inactive.
After knock-down of E(bx) [DRSC08583], the record shows firefly reporter light, replicate 1 = 1.11e6; firefly reporter light, replicate 2 = 1.14e6; Renilla control light, replicate 1 = 5.89e5; Renilla control light, replicate 2 = 5.26e5; inactive.
Knock-down of LTV1 [DRSC05951] came out at: firefly reporter light, replicate 1 = 7.07e5; firefly reporter light, replicate 2 = 7.44e5; Renilla control light, replicate 1 = 1.39e6; Renilla control light, replicate 2 = 1.33e6; inactive.
CG10433 [DRSC04068] gave firefly reporter light, replicate 1 = 5.00e5; firefly reporter light, replicate 2 = 9.34e5; Renilla control light, replicate 1 = 1.60e6; Renilla control light, replicate 2 = 3.13e6; inactive.
Against CG10433 [DRSC26255], the entry reads firefly reporter light, replicate 1 = 4.53e5; firefly reporter light, replicate 2 = 3.47e5; Renilla control light, replicate 1 = 7.04e5; Renilla control light, replicate 2 = 6.79e5; inactive.
Against RacGAP84C [DRSC12630] the deposit lists firefly reporter light, replicate 1 = 2.02e5; firefly reporter light, replicate 2 = 2.14e5; Renilla control light, replicate 1 = 4.16e6; Renilla control light, replicate 2 = 3.56e6; inactive.
For CG12128 [DRSC06104] the deposit lists firefly reporter light, replicate 1 = 1.12e6; firefly reporter light, replicate 2 = 1.07e6; Renilla control light, replicate 1 = 2.27e6; Renilla control light, replicate 2 = 2.59e6; inactive.
CG12128 [DRSC29958] scored firefly reporter light, replicate 1 = 8.60e5; firefly reporter light, replicate 2 = 7.70e5; Renilla control light, replicate 1 = 1.08e6; Renilla control light, replicate 2 = 1.31e6; inactive.
After knock-down of Uggt [DRSC11315], the record shows firefly reporter light, replicate 1 = 28648; firefly reporter light, replicate 2 = 21155; Renilla control light, replicate 1 = 3.66e5; Renilla control light, replicate 2 = 2.56e5; inactive.
After knock-down of awd [DRSC16906], the record shows firefly reporter light, replicate 1 = 2.29e5; firefly reporter light, replicate 2 = 2.28e5; Renilla control light, replicate 1 = 1.99e6; Renilla control light, replicate 2 = 3.50e6; inactive.
awd [DRSC36594] showed inactive.
After knock-down of Alms1a [DRSC18558], the record shows firefly reporter light, replicate 1 = 1.35e5; firefly reporter light, replicate 2 = 2.41e5; Renilla control light, replicate 1 = 1.97e6; Renilla control light, replicate 2 = 2.49e6; inactive.
With knock-down of Odj [DRSC16234], the record shows firefly reporter light, replicate 1 = 69451; firefly reporter light, replicate 2 = 56529; Renilla control light, replicate 1 = 4.02e5; Renilla control light, replicate 2 = 4.23e5; inactive.
CG31404 [DRSC15497] gave firefly reporter light, replicate 1 = 2.47e5; firefly reporter light, replicate 2 = 3.47e5; Renilla control light, replicate 1 = 2.92e6; Renilla control light, replicate 2 = 3.72e6; inactive.
With knock-down of CG31404 [DRSC28438], the screen gave firefly reporter light, replicate 1 = 5.24e5; firefly reporter light, replicate 2 = 8.84e5; Renilla control light, replicate 1 = 7.46e5; Renilla control light, replicate 2 = 1.15e6; inactive.
Depletion of wol [DRSC03077] came out at: firefly reporter light, replicate 1 = 7.17e5; firefly reporter light, replicate 2 = 1.04e6; Renilla control light, replicate 1 = 2.62e6; Renilla control light, replicate 2 = 2.36e6; inactive.
After knock-down of wol [DRSC27227] the results were firefly reporter light, replicate 1 = 2.62e5; firefly reporter light, replicate 2 = 2.28e5; Renilla control light, replicate 1 = 6.05e5; Renilla control light, replicate 2 = 2.55e5; inactive.
Against Wdr92 [DRSC10187], the values are firefly reporter light, replicate 1 = 2.42e5; firefly reporter light, replicate 2 = 1.28e5; Renilla control light, replicate 1 = 2.84e6; Renilla control light, replicate 2 = 1.70e6; inactive.
Knock-down of TMEM216 + CG11760 [DRSC14375] came out at: firefly reporter light, replicate 1 = 1.55e5; firefly reporter light, replicate 2 = 1.19e5; Renilla control light, replicate 1 = 1.07e6; Renilla control light, replicate 2 = 1.27e6; inactive.
For CG18823 [DRSC18168] the deposit lists firefly reporter light, replicate 1 = 2.25e5; firefly reporter light, replicate 2 = 2.10e5; Renilla control light, replicate 1 = 3.53e6; Renilla control light, replicate 2 = 2.16e6; inactive.
With knock-down of Sprn [DRSC10132], the screen gave firefly reporter light, replicate 1 = 2.16e5; firefly reporter light, replicate 2 = 1.49e5; Renilla control light, replicate 1 = 2.13e6; Renilla control light, replicate 2 = 1.74e6; inactive.
For PlexB [DRSC17177], the values are firefly reporter light, replicate 1 = 1.61e5; firefly reporter light, replicate 2 = 1.94e5; Renilla control light, replicate 1 = 1.54e6; Renilla control light, replicate 2 = 2.24e6; inactive.
For CG1416 [DRSC03706], the entry reads firefly reporter light, replicate 1 = 8.80e5; firefly reporter light, replicate 2 = 4.51e5; Renilla control light, replicate 1 = 2.68e6; Renilla control light, replicate 2 = 1.84e6; inactive.

Laid out differently: entries from further up.
{"gene": "CG10433", "DRSC id": "DRSC26255", "firefly reporter light, replicate 1": 4.53e5, "firefly reporter light, replicate 2": 3.47e5, "Renilla control light, replicate 1": 7.04e5, "Renilla control light, replicate 2": 6.79e5, "activity call": "inactive"}
{"gene": "RacGAP84C", "DRSC id": "DRSC12630", "firefly reporter light, replicate 1": 2.02e5, "firefly reporter light, replicate 2": 2.14e5, "Renilla control light, replicate 1": 4.16e6, "Renilla control light, replicate 2": 3.56e6, "activity call": "inactive"}
{"gene": "CG12128", "DRSC id": "DRSC06104", "firefly reporter light, replicate 1": 1.12e6, "firefly reporter light, replicate 2": 1.07e6, "Renilla control light, replicate 1": 2.27e6, "Renilla control light, replicate 2": 2.59e6, "activity call": "inactive"}
{"gene": "CG12128", "DRSC id": "DRSC29958", "firefly reporter light, replicate 1": 8.60e5, "firefly reporter light, replicate 2": 7.70e5, "Renilla control light, replicate 1": 1.08e6, "Renilla control light, replicate 2": 1.31e6, "activity call": "inactive"}
